Reference: paper PMC7132099
No constants are given. Whether binding was seen depends on the method and setting. In cells and extracts the contact can be indirect. Here binding means that the protein was enriched with, or labelled near, the bait; the list need not be complete.

Protein sequences, listed by entry. Tags and fused reporters are not part of them.
UniProt Q80Y73: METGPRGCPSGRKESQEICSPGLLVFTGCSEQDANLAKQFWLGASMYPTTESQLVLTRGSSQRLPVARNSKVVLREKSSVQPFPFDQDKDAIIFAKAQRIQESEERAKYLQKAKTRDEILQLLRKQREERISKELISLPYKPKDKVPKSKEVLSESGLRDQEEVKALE
UniProt O35286: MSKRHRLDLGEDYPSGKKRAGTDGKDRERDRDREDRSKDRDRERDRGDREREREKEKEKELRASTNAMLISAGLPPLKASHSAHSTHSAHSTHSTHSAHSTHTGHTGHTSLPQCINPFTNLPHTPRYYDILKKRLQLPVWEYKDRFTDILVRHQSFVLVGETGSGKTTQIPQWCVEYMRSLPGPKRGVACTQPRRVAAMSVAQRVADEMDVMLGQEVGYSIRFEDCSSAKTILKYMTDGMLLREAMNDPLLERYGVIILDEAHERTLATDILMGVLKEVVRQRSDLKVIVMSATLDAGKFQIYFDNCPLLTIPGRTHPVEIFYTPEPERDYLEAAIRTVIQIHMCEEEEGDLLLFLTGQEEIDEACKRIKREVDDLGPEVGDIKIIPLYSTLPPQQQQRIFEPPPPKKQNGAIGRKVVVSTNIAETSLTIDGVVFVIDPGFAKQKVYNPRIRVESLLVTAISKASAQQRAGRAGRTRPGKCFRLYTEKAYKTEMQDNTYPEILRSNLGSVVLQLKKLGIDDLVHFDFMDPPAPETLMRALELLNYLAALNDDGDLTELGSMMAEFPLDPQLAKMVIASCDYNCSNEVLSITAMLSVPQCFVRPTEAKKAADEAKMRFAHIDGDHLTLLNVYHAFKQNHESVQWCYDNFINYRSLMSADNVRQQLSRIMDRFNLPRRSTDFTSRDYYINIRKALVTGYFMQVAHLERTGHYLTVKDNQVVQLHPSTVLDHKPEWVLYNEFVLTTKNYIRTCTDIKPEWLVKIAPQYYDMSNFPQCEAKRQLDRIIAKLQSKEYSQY
UniProt P16627: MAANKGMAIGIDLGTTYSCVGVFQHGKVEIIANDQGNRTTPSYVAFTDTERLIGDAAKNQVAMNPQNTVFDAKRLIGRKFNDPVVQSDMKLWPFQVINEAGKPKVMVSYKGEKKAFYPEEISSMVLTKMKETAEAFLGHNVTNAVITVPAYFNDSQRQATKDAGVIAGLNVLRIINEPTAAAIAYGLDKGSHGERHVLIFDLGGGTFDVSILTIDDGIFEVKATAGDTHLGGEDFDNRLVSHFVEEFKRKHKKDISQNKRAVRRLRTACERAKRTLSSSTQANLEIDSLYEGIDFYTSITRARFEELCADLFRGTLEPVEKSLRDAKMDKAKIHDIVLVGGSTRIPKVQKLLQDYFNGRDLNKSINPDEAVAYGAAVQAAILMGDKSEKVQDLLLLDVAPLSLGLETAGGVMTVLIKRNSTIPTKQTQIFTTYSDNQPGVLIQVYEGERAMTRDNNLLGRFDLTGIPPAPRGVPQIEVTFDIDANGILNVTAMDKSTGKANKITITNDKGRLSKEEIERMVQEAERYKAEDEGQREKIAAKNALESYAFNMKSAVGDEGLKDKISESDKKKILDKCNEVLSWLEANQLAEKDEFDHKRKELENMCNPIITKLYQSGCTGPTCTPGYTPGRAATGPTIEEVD
UniProt P48722: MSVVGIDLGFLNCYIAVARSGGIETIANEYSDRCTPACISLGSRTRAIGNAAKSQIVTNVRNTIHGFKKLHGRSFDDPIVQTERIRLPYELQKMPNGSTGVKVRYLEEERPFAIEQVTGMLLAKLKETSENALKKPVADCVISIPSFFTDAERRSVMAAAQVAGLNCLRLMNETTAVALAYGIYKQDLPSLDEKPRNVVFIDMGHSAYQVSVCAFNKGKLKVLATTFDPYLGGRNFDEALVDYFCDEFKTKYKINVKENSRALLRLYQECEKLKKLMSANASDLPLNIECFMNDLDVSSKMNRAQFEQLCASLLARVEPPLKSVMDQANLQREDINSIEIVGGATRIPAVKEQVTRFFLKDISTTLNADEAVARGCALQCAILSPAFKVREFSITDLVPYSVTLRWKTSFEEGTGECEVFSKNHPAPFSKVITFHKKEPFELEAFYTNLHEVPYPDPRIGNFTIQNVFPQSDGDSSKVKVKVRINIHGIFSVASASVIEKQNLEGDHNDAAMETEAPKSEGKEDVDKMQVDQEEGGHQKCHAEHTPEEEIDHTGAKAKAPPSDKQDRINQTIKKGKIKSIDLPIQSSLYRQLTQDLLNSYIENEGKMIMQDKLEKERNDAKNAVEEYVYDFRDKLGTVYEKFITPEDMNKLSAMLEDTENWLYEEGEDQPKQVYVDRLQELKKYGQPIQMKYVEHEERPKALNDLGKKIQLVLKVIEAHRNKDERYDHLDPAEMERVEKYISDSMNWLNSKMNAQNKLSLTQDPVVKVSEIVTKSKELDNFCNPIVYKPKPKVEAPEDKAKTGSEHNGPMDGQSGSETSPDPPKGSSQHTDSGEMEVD
UniProt P05214: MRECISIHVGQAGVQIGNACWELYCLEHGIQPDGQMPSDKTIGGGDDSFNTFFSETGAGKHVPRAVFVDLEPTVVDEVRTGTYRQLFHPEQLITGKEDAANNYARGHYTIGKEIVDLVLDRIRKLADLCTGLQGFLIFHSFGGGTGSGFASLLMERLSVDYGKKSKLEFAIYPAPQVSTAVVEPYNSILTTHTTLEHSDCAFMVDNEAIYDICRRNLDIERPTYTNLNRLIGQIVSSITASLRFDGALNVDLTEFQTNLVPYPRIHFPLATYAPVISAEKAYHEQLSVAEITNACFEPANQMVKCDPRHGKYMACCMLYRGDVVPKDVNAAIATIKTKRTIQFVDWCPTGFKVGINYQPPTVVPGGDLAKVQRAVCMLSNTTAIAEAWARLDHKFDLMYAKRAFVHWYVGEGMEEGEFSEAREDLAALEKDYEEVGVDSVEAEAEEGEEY
UniProt P99024: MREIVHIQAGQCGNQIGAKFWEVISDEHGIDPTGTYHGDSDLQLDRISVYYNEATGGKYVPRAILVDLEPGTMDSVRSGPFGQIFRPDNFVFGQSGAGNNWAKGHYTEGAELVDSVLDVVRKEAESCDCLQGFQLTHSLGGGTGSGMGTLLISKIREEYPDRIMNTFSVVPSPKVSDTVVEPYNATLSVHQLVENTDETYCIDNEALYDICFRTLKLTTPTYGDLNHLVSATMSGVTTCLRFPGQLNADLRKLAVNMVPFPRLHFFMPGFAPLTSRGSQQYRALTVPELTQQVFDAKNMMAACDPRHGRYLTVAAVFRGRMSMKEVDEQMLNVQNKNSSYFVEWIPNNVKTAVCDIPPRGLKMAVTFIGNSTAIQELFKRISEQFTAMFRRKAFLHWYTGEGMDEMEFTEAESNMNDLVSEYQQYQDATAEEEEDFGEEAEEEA

B1: small nuclear ribonucleoprotein U4/U6.U5 subunit 27 (SNRNP27) (protein, UniProt Q8K194 1-155)
chain: MGRSRSRSPRRERRRSRSTSRDRERRRRERSRSRERDRRRSRSRSPHRRRSRSPRRHRSTSPSPSRLKERRDEEKKETKEIKNKERQITEEDLEGKTEEEIEMMKLMGFASFDSTKGKKVDGSVNAYAINVSQKRKYRQYMNRKGGFNRPLDFIA
B2: arginine and serine rich coiled-coil 1 (RSRC1) (protein, UniProt Q9DBU6 1-334)
chain: MGRRSSDTEEESRSKRKKKHRRRSSSSSSSDSRTYSRKKGGRRPRSDSRSWSRDRQLRSHSYERRRRRRSSSSSSYGSRRKRSRSRSRGRGKPYRVQRSRSKSRTRRSRSRPRPRSHSRSSERSSHRRTRSRSRDRDRRKVRDKEKREKEKDKGKDKEVHSIKRGDSGNIKAGLEHLPPAEQAKARLQLVLEAAAKADEALKAKERSEEEAKRRKEEDQATLVEQVKRVKEIEAIESDSFVQQTFRSSKDVKKAVEPSEVQHVTAASGPASAAAEPPSTGKEIDPDSIPTAIKYQDDNSLAHPNLFIEKAEAEEKWFKRLIALRQERLMGSPVA
B3: enolase 4 (ENO4) (enzyme, UniProt Q8C042 1-619)
chain: MGDEDGGRRGGITRDLQKLKQQAMAYYQENDVPRKLEDLLNSTFYLQPADVYGHLKANYFSKLAKPPSICKIVGKTILDGLGLPTLQVEISCTIQNFPKYICAVAIPTHFEVVENALPEALDAEDSERAQAVNTAVQWINQSITEELWGLVPSNQAEVDHRLRTFFEHKVQEDKERKELEKSQEELVPAPPPVTLPPPPPPPPPPPSKKKGQKAGRRDTLLEKPVSPPEPPEPVLHGSMAIGAVSLAVAKASATLASDPLYLTLASLKHDQEQPSTFSMPLLMGSVLSCGKSSPGKLHLMKEVICIPSPGLTAKQSVELLLEIQKQVNRAMETLPPPKQETKKGHNGSKRAQPPITGKVSHLGCLTINYDAIEQPLLLLQGICSNLGLELGVNFHLAINCAGHELMDYSKGKYEVMVGTHKSAAEMVELYVDLINKYPSIIALIDPFRKEDAEQWDSLYAALASRCYLIAGAASGSVSKLLECRNISTLKSHGLIIKHTNQTTMSDLVEITHLINGKKLLAVFGSTDSESSDDSLVDLAVGFGARFIKLGGLSRGERMTKYNRLLAIEEELIQRGVWGFSEEHNFSFFQEDATATMAEETLGLLDSIFPTEVIEESAKT
B4: apoptotic chromatin condensation inducer 1 (ACIN1) (protein, UniProt Q9JIX8 1-1338)
chain: MWGRKRPNSSGETRGILSGNRGVDYGSGRGQSGPFEGRWRKLPKMPEAVGTDPSTSRKMAELEEVTLDGKPLQALRVTDLKAALEQRGLAKSGQKSALVKRLKGALMLENLQKHSTPHAAFQPNSQIGEEMSQNSFIKQYLEKQQELLRQRLEREAREAAELEEASAESEDEMTHPEGVASLLPPDFQSSLNRPELELSTHSPRKSSSFSEEKGESDDEKPRKGERRSSRVRQAKSKLPEYSQTAEEEEDQETPSRNLRVRADRNLKIEEEEEEEEEEEDDDDEEEEEVDEAQKSREAEAPTLKQFEDEEGEERTRAKPEKVVDEKPLNIRSQEKGELEKGGRVTRSQEEARRSHLARQQQEKETQIVSLPQEENEVKSSQSLEEKSQSPSPPPLPEDLEKAPVVLQPEQIVSEEETPPPLLTKEASSPPTHIQLQEEMEPVEGPAPPVLIQLSPPNTDAGAREPLASPHPAQLLRSLSPLSGTTDTKAESPAGRVSDESVLPLAQKSSLPECSTQKGVESEREKSAPLPLTVEEFAPAKGITEEPMKKQSLEQKEGRRASHALFPEHSGKQSADSSSSRSSSPSSSSSPSRSPSPDSVASRPQSSPGSKQRDGAQARVHANPHERPKMGSRSTSESRSRSRSRSRSASSSSRKSLSPGVSRDSNTSYTETKDPSCGQEAAAPSGPQLQVLEPKEKAPTFSASVRGRHLSHPEPEQQHVIQRLQPEQGSPKKCEAEEAEPPAATQPQTSETQISHLLESERTHHTVEEKEEVTMDTSENRPENEVPEPPLPVADQVSNDERPEGGAEEEEKKESSMPKSFKRKISVVSATKGVQAGNSDTEGGQPGRKRRWGASTAATQKKPSISITTESLKSLIPDIKPLAGQEAVVDLHADDSRISEDETERNGDDGTHDKGLKICRTVTQVVPAEGQENGQREEEEEKEPEAELPAPPQVSVEVALPPPVEHEVKKVTLGDTLTRRSISQQKSGVSITIDDPVRTAQVPSPPRGKISNIVHISNLVRPFTLGQLKELLGRTGTLVEEAFWIDKIKSHCFVTYSTVEEAVATRTALHGVKWPQSNPKFLCADYAEQDELDYHRGLLVDRPSETKAEEQGAPRPLHPPPPPPVQPPPHPRAEQREQERAVREQWAEREREMERRERTRSEREWDRDKVREGPRSRSRSRDRRRKERAKSKEKKSEKKEKAQEEPPAKLLDDLFRKTKAAPCIYWLPLTESQIVQKEAEQAERAKEREKRRKEREEEEQKEREKEAERERNRQLEREKRREHSRERERDRERERDRGDRERERERDRDRGRERDRRDTKRHSRSRSRSTPVRDRGGRR
B5: RNA binding protein with serine rich domain 1 (RNPS1) (protein, UniProt Q99M28 1-305)
chain: MDLSGVKKKSLLGVKENNKKSSTRAPSPTKRKDRSDEKSKDRSKDKGATKESSEKDRGRDKTRKRRSASSGSSSTRSRSSSTSSSGSSTSTGSSSGSSSSSASSRSGSSSTSRSSSSSSSSGSPSPSRRRHDNRRRSRSKSKPPKRDEKERKRRSPSPKPTKVHIGRLTRNVTKDHIMEIFSTYGKIKMIDMPVERMHPHLSKGYAYVEFENPDEAEKALKHMDGGQIDGQEITATAVLAPWPRPPPRRFSPPRRMLPPPPMWRRSPPRMRRRSRSPRRRSPVRRRSRSPGRRRHRSRSSSNSSR

What follows are molecules tested against HOATZ (Hoatzin; product of 4833427G06Rik) (mouse (endogenous in testis)) (UniProt Q80Y73) (assay: affinity purification with mass spectrometry; testis homogenates of wild-type and Hoatz-/- mice incubated with rabbit polyclonal anti-HOATZ IgG cross-linked to magnetic beads; eluates analysed by LC-MS; hits: specific to or >3-fold more peptide-to-spectrum matches in wild type).

binding, binds:
DEAH-box helicase 15 (DHX15) (from UniProt O35286 1-795)
HSPA1L (from UniProt P16627 1-641)
HSPA4L (from UniProt P48722 1-838)
TUBA3A (from UniProt P05214 1-450)
TUBB5 (from UniProt P99024 1-444)
B1
B2
B3
B4
B5
